Results as given in the supplement of paper PMC10849652.
Some of the results follow.

By UniProt entry, the sequences of proteins in these tests, tags left out. Where a name states a change or a piece, a line headed by the entry shows the natural chain unless it says otherwise.
UniProt Q8NB14: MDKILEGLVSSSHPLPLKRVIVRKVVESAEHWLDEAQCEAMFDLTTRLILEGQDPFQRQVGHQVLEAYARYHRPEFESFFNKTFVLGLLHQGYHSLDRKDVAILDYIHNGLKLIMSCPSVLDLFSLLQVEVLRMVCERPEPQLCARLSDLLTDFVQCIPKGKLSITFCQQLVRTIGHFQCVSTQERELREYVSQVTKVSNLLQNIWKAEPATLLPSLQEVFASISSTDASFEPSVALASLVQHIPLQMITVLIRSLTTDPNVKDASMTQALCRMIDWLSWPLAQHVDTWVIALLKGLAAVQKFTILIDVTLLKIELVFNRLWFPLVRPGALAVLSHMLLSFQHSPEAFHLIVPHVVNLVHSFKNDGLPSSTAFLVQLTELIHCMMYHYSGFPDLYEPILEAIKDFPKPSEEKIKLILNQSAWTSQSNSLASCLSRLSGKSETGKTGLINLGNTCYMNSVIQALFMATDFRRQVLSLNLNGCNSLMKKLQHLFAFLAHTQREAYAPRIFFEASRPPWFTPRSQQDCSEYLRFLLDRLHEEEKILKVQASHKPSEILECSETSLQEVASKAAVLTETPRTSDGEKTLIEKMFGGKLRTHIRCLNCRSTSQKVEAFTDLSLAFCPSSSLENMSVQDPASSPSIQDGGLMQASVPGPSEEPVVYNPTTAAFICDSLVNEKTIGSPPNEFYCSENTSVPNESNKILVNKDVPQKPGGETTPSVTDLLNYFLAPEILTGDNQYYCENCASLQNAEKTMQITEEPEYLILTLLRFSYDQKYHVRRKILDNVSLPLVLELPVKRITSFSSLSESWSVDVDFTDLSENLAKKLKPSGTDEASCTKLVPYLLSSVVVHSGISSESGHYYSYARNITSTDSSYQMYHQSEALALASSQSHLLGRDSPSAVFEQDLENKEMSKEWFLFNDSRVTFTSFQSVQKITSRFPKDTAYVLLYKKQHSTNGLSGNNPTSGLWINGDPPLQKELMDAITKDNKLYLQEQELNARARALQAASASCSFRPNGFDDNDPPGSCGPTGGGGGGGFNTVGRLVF
UniProt O94763, whole entry, looked up: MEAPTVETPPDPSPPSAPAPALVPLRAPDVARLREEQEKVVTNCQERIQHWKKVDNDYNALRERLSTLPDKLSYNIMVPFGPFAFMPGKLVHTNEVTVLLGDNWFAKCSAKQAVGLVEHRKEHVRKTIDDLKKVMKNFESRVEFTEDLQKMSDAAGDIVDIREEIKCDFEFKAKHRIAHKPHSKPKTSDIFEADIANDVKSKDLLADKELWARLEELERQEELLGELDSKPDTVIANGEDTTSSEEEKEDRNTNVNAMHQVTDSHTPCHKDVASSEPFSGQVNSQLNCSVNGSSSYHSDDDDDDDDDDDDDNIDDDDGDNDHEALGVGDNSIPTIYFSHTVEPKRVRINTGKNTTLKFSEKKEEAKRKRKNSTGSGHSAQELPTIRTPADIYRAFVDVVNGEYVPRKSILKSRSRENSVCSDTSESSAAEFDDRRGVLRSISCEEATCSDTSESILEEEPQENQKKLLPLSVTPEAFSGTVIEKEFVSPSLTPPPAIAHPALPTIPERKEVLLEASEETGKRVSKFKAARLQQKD
UniProt O75317, whole entry, looked up: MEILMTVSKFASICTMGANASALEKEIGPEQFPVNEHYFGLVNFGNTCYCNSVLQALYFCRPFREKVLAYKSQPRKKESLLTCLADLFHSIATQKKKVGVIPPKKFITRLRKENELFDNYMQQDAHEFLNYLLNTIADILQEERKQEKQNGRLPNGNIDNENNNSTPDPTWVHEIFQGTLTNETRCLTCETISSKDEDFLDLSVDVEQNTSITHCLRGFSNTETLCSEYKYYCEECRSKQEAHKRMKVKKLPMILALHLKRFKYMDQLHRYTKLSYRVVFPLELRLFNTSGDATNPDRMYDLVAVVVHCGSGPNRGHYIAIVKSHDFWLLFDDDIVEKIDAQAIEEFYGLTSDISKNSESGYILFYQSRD
UniProt Q9UDW1: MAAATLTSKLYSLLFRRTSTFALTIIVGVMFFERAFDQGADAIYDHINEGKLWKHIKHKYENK
UniProt O60287: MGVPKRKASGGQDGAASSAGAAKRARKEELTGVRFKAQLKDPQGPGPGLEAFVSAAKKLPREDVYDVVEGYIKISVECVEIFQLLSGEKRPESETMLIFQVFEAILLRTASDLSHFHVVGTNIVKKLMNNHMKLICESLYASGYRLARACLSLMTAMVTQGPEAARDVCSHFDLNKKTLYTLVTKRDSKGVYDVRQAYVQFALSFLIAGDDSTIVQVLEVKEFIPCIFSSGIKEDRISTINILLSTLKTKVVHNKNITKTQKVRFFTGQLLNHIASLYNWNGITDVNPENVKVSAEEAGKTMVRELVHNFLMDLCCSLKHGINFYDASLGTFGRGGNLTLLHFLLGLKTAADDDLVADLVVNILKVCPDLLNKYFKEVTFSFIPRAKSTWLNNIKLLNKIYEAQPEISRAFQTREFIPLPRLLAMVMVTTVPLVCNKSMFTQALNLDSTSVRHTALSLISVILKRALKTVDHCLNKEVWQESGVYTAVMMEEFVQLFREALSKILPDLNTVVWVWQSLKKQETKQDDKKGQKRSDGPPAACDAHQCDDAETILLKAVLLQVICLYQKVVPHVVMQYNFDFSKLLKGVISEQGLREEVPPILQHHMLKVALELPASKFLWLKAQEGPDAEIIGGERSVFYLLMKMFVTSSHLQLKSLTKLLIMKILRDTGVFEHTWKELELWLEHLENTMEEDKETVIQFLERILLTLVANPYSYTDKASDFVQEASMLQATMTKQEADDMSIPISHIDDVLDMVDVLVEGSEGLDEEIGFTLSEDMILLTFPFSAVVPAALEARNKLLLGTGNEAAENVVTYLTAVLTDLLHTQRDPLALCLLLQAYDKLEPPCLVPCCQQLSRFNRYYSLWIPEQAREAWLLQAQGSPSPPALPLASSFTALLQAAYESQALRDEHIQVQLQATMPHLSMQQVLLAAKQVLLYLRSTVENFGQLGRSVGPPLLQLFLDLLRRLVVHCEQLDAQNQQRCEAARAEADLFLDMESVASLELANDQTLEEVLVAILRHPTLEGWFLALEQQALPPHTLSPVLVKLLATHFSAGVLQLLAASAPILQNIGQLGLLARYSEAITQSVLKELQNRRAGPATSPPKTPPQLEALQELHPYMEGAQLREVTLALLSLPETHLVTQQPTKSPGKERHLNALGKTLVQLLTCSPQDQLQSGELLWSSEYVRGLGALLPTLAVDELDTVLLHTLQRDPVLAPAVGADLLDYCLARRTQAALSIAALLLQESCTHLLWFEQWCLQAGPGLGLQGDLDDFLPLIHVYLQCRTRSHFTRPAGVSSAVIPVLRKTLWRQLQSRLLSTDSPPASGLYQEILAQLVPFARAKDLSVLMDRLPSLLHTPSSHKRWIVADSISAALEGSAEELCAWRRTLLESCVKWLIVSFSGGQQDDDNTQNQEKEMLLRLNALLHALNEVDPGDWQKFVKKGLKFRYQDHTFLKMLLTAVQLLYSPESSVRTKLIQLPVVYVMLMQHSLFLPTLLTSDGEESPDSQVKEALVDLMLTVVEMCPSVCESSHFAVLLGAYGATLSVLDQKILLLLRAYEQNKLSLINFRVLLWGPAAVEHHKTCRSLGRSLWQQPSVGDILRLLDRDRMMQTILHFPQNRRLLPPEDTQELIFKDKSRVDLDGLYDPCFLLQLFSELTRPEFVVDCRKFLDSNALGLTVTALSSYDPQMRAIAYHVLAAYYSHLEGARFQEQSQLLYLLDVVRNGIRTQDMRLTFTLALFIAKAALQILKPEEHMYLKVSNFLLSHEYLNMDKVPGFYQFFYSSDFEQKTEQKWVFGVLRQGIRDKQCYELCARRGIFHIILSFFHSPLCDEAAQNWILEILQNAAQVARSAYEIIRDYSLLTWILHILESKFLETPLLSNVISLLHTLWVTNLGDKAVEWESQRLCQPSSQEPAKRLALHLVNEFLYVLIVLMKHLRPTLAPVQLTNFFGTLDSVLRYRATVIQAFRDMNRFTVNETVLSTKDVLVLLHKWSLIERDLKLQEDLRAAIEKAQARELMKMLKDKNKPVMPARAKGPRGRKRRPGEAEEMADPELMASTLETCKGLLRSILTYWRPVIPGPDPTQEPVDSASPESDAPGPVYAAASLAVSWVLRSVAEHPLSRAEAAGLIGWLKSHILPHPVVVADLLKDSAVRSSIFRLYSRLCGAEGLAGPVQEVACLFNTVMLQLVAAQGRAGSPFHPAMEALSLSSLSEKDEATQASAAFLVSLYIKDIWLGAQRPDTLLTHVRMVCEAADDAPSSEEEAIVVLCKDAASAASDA
UniProt Q9P275: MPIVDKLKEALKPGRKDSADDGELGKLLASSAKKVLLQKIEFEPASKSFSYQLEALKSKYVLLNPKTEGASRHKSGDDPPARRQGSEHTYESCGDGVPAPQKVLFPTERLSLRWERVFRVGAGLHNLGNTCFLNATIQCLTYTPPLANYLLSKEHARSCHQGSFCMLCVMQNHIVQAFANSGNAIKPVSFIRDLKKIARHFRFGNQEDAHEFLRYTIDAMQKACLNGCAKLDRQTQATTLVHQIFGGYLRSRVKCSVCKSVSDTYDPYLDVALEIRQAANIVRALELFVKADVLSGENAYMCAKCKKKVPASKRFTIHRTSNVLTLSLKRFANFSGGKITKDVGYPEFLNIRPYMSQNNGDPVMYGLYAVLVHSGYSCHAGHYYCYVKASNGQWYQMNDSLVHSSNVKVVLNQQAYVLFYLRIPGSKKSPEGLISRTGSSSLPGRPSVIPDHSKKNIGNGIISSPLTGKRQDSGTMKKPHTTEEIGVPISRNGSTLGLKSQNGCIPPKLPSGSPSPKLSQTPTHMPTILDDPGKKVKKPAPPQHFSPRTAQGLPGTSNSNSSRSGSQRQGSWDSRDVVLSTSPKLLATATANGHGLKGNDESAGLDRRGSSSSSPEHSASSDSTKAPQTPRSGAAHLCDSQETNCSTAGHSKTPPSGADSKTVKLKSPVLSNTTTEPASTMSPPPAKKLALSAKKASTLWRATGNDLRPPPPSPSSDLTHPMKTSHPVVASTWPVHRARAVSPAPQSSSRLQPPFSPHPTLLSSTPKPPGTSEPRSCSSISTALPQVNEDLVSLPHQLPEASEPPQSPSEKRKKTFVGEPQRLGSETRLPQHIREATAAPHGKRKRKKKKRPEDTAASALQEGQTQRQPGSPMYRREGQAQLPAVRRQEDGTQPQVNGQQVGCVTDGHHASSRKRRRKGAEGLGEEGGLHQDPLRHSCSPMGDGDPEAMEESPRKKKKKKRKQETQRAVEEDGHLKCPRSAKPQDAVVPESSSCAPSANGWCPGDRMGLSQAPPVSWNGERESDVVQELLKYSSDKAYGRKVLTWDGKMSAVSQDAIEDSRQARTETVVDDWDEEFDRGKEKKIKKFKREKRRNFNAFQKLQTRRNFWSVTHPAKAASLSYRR
UniProt C9J7I0: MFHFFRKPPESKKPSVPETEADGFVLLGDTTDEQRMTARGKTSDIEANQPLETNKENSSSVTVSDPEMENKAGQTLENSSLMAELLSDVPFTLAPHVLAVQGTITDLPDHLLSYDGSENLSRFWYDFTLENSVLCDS
UniProt O75385: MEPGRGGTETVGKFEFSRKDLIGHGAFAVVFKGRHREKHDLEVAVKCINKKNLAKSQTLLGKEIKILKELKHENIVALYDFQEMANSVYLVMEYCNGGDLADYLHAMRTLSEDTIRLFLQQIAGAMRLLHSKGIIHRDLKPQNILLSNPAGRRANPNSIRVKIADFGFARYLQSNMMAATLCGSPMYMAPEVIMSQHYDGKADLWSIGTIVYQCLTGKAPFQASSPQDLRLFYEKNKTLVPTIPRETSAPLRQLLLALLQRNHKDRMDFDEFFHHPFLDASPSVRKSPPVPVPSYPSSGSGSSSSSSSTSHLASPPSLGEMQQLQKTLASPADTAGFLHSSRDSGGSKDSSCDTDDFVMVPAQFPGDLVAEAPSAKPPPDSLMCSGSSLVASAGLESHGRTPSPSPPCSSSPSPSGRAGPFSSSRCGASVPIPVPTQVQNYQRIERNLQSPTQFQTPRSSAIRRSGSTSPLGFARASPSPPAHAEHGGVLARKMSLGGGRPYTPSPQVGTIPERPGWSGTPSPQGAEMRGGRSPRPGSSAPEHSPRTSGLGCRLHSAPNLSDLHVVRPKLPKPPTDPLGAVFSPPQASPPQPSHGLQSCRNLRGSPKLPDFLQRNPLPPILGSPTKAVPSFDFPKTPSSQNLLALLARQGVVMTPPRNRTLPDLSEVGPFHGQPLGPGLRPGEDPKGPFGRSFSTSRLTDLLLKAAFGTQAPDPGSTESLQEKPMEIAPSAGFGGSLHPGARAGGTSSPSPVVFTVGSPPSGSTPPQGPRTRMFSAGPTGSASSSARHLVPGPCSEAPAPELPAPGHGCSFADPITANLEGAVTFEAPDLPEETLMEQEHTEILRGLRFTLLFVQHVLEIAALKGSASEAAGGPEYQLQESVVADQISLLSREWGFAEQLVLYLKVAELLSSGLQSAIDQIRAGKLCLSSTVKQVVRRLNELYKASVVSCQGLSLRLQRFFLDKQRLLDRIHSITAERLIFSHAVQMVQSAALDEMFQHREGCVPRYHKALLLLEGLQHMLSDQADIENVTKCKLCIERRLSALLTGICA

The targets below were run with C1=CC2=NC=CN=C2C=C1/C=C/3\C(=O)NC(=O)S3 (assay: log2 fold change, soluble protein after heating vs DMSO (PISA); higher = thermal stabilisation; K562 lysate, 10 uM; active = over 0.2 and 3.5 SD of the protein, either way, in both replicates (recomputed)).
Summary of the method: (§1)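 Values give the log-two fold change in thermal stability against solvent controls, from duplicates. Crude K562 extract at 1 mg/mL protein, made by dounce homogenisation in PBS pH 7.4 with 1 mM MgCl2, was treated with 10 μM compound for 30 min. After 3 min heating across 48°C-58°C, aliquots were pooled, adjusted to 0.5% NP-40 at 4°C and centrifuged at 21,000xg for 90 min. The supernatant was measured by TMTpro 16plex LC-MS/MS with channel sums equalised.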

log2 fold change, inactive:
UPF3A (UniProt Q9H1J1) 0.072, UTRN isoform 2 (UniProt P46939) -0.072, VANGL2 (UniProt Q9ULK5) 0.018, UROD (UniProt H0Y5R6) 0.042, USP38 (UniProt Q8NB14) 0.198, USF3 (UniProt Q68DE3) -0.136, UTP23 (UniProt Q9BRU9) 0.018, USP5 (UniProt F5H571) -0.413, URI1 isoform 4 (UniProt O94763) 0.12, UTP11 (UniProt Q9Y3A2) -0.148, URGCP (UniProt Q8TCY9) -0.01, USP20 (UniProt Q9Y2K6) 0.138, VCPKMT (UniProt Q9H867) -0.071, VCX3B (UniProt Q9H321) 0.006, USP42 (UniProt Q9H9J4) -0.153, UNKL (UniProt E9PDK2) 0.061, USP7 (UniProt H3BND8) -0.015, USP46 (UniProt P62068) 0.084, UNG (UniProt P13051) 0.205, VGLL4 isoform 4 (UniProt Q14135) -0.003

The targets below were run with C1=CC=C(C=C1)C2=NC(=C(N2)C3=CC=NC=C3)C4=CC(=C(C=C4)Cl)O in the same assay as above.
Summary of the method: as §1

log2 fold change, inactive:
UPF3A (UniProt Q9H1J1) -0.062, USP40 isoform 3 (UniProt Q9NVE5) 0.203, VANGL2 (UniProt Q9ULK5) -0.038, USP12 (UniProt O75317) 0.027, UCP2 (UniProt P55851) 0.011, UROD (UniProt H0Y5R6) -0.184, USP38 (UniProt Q8NB14) 0.01, UNC119 (UniProt Q13432) -0.059, UTP23 (UniProt Q9BRU9) -0.079, USP33 (UniProt Q8TEY7) -0.025, UQCR10 (UniProt Q9UDW1) -0.013, URB1 (UniProt O60287) 0.042, USP27X (UniProt A6NNY8) -0.139, USP30 (UniProt Q70CQ3) 0.074, USP36 (UniProt Q9P275) 0.089, URI1 isoform 4 (UniProt O94763) 0.018, URGCP (UniProt Q8TCY9) -0.038, URB2 (UniProt Q14146) -0.007, USP20 (UniProt Q9Y2K6) -0.052, VCX3B (UniProt Q9H321) -0.051, UMAD1 (UniProt C9J7I0) -0.045, VASN (UniProt Q6EMK4) -0.191, ULK1 (UniProt O75385) 0.13, UNG (UniProt P13051) -0.074, VGLL4 isoform 4 (UniProt Q14135) 0.016

These targets were tested with C1=CC=C2C(=C1)C3=NNC4=CC=CC(=C43)C2=O in the same assay as above.
Summary of the method: as §1

log2 fold change, inactive:
USP37 (UniProt Q86T82) -0.019, USP12 (UniProt O75317) -0.053, UHRF2 (UniProt Q96PU4) -0.211, UCP2 (UniProt P55851) -0.025, UROD (UniProt H0Y5R6) 0.097, USP38 (UniProt Q8NB14) -0.125, USP6NL isoform 2 (UniProt Q92738) -0.164, UQCR10 (UniProt Q9UDW1) -0.026, URB1 (UniProt O60287) 0.025, VAV2 (UniProt P52735) -0.043, USP36 (UniProt Q9P275) -0.126, UTP11 (UniProt Q9Y3A2) 0.059, URGCP (UniProt Q8TCY9) 0.051, URB2 (UniProt Q14146) -0.061, VGF (UniProt O15240) -0.12, ULK1 (UniProt O75385) -0.023, UNKL (UniProt E9PDK2) -0.122

What follows are targets tested with C1CCN(C1)C(=O)NC2=CC=CC(=C2)NC3=NC=C(C(=N3)NCCC4=CN=CN4)Br in the same assay as above.
Summary of the method: as §1

log2 fold change, inactive:
UPF3A (UniProt Q9H1J1) -0.047, USP37 (UniProt Q86T82) -0.008, UTRN isoform 2 (UniProt P46939) 0.135, USP12 (UniProt O75317) 0.073, UROD (UniProt H0Y5R6) -0.125, USP38 (UniProt Q8NB14) 0.007, USP6NL isoform 2 (UniProt Q92738) 0.149, USF3 (UniProt Q68DE3) -0.043, UQCR10 (UniProt Q9UDW1) 0.014, URB1 (UniProt O60287) -0.021, USP36 (UniProt Q9P275) 0.167, URI1 isoform 4 (UniProt O94763) -0.181, UTP11 (UniProt Q9Y3A2) -0.192, URB2 (UniProt Q14146) 0.038, USP20 (UniProt Q9Y2K6) 0.058, VCX3B (UniProt Q9H321) -0.013, VGF (UniProt O15240) 0.068, VASN (UniProt Q6EMK4) -0.277, ULK1 (UniProt O75385) -0.028, USP42 (UniProt Q9H9J4) -0.017, UNKL (UniProt E9PDK2) 0.155, UNG (UniProt P13051) 0.105
